# From paper PMC12711160 (Chemmedchem, 2025)
# Experiment: general procedure: Fmoc solid-phase peptide synthesis; NovaSyn TGR R resin (Merck); DIC/OxymaPure (automated); HOBt/DIC (manual)
# Details: whole synthesis, RP-HPLC, linear gradient 20-70% eluent B in A over 40 min, scale of the general procedure 15 µmol
substance,measurement,value
APLEPVYPGDNATPEQMAQYAADLRRYINMLTRPRY-NH2,final HPLC purity,> 95%
"[K4(Diamine-4-OHT),F7,P34]-pNPY",final HPLC purity,> 88%
